For the assay, the target named is Importin-β1 (human (endogenous in HEK293)) (UniProt Q14974). Put plainly: co-IP; Importin-β1 immunoprecipitated from 500 µg pre-cleared whole cell lysate of HEK293 cells transiently expressing GFP-tagged ZNF24 proteins, 1.0 µg Karyopherin-β1 antibody (or mouse IgG as control) 2 h, Protein A/G beads overnight at 4°C; blotted with anti-GFP or anti-importin.

Sequences of proteins named here, by UniProt entry; tags and fusion partners are left off. A change or cut given only in a name is not applied to a line headed by its entry.
UniProt Q14974: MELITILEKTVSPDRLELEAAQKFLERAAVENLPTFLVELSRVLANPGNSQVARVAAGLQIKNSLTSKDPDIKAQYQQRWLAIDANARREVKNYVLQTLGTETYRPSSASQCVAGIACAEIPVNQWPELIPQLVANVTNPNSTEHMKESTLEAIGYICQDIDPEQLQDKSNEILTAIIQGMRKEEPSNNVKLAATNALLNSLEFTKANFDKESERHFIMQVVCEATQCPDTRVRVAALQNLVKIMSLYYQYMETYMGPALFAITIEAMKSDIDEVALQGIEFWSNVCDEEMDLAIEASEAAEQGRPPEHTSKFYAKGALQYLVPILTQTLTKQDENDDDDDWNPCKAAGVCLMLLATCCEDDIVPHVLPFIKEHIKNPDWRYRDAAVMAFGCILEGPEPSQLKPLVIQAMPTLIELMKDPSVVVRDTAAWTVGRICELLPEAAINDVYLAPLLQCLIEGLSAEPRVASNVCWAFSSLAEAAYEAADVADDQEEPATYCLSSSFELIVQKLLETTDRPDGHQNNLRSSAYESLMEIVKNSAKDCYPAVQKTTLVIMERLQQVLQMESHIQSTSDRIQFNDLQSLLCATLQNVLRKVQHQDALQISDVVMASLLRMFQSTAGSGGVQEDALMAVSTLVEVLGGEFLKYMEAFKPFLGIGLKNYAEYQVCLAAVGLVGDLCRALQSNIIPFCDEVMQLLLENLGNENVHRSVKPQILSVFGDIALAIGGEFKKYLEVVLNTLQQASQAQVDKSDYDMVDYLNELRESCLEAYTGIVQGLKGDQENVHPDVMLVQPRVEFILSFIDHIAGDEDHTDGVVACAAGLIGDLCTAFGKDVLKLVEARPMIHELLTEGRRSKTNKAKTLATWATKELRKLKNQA
UniProt P17028: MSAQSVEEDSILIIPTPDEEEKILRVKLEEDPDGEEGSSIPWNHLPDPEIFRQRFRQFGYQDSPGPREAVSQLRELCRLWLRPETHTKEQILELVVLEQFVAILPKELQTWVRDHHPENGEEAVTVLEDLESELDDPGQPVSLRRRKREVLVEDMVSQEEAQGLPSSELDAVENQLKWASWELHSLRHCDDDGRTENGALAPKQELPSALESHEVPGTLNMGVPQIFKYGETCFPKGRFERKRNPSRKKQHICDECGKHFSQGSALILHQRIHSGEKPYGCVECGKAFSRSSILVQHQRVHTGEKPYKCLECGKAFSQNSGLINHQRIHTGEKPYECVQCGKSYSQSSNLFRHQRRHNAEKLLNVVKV

No constants are given. Whether binding was seen depends on the method and setting. Binding seen in cells or lysates may run through a third protein. Binding calls can cover weak binding; strength is not graded here.

On to “ZNF24-GFP R290A mutant (from UniProt P17028)”, for which the binding result is “binds”.
The same measure for “ZNF24-GFP K286A mutant (from UniProt P17028)”: “binds”.

(Values after publication PMC3815127.)
